Measured values published in paper PMC10303434.
No constants are given. Whether binding was seen depends on the method and setting. In cells and extracts the contact can be indirect. These calls come from enrichment with a bait or labelling near it, and not all partners need be listed. Each block holds one binder with its values, some of them ahead of it.

Chains of the proteins cited; added tags and fusions are not shown.
UniProt Q8NFJ5: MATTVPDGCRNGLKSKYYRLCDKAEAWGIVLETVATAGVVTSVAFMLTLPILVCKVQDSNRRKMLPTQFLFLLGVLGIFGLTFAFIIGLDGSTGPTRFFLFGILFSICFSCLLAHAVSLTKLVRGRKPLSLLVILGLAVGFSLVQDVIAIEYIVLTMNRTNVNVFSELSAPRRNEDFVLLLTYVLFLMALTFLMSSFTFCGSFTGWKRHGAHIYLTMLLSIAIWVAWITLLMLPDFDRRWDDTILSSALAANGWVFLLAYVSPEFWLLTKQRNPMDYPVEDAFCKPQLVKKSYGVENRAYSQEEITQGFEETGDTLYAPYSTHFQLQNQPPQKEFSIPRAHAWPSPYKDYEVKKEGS

Biological target: GPRC5A-FLAG (human (cDNA from TREX-BCBL-1 cells)) (UniProt Q8NFJ5)
Test: affinity purification with mass spectrometry; FLAG M2 antibody on Protein A or G Dynabeads, lysates of latent and lytic (reactivated) GPRC5A-FLAG TREx-BCBL1-Rta cells against parental cells, overnight at 4 °C; buffer 150 mM NaCl, 2 mM EDTA, 0.5% Triton-X 100, 0.5 mM DTT, 10 mM Tris pH 7.4; TMT LC-MS/MS, two replicates

- binding: binds
B1: FLOT2 (protein, UniProt Q14254 1-428)
chain: MGNCHTVGPNEALVVSGGCCGSDYKQYVFGGWAWAWWCISDTQRISLEIMTLQPRCEDVETAEGVALTVTGVAQVKIMTEKELLAVACEQFLGKNVQDIKNVVLQTLEGHLRSILGTLTVEQIYQDRDQFAKLVREVAAPDVGRMGIEILSFTIKDVYDKVDYLSSLGKTQTAVVQRDADIGVAEAERDAGIREAECKKEMLDVKFMADTKIADSKRAFELQKSAFSEEVNIKTAEAQLAYELQGAREQQKIRQEEIEIEVVQRKKQIAVEAQEILRTDKELIATVRRPAEAEAHRIQQIAEGEKVKQVLLAQAEAEKIRKIGEAEAAVIEAMGKAEAERMKLKAEAYQKYGDAAKMALVLEALPQIAAKIAAPLTKVDEIVVLSGDNSKVTSEVNRLLAELPASVHALTGVDLSKIPLIKKATGVQV

- binding: binds
B2: FLOT1 (protein, UniProt O75955 1-427)
chain: MFFTCGPNEAMVVSGFCRSPPVMVAGGRVFVLPCIQQIQRISLNTLTLNVKSEKVYTRHGVPISVTGIAQVKIQGQNKEMLAAACQMFLGKTEAEIAHIALETLEGHQRAIMAHMTVEEIYKDRQKFSEQVFKVASSDLVNMGISVVSYTLKDIHDDQDYLHSLGKARTAQVQKDARIGEAEAKRDAGIREAKAKQEKVSAQYLSEIEMAKAQRDYELKKAAYDIEVNTRRAQADLAYQLQVAKTKQQIEEQRVQVQVVERAQQVAVQEQEIARREKELEARVRKPAEAERYKLERLAEAEKSQLIMQAEAEAASVRMRGEAEAFAIGARARAEAEQMAKKAEAFQLYQEAAQLDMLLEKLPQVAEEISGPLTSANKITLVSSGSGTMGAAKVTGEVLDILTRLPESVERLTGVSISQVNHKPLRTA
